Results: the supplement of paper PMC12889115
Some of the results follow. These are raw signals, not scaled to a control.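 Primary screen: polymyxin B was added at a level permeabilizing Salmonella outer membranes while sparing inner membranes. DMSO wells, both with and without polymyxin B, established maximum growth. Plate-to-plate variation meant each plate was ranked on its own, and the lowest-OD600 compounds were selected as hits.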

System: Salmonella enterica serovar Typhimurium SL1344
Assay: bacterial growth OD600 after 18 h with compound and polymyxin B; higher = more bacterial growth (less inhibition)
Conditions: 50 µM, Mueller-Hinton broth

CC(C)(CNC(=O)c1cc(COc2ccc3c(c2)OCO3)[nH]n1)N1CCOCC1
bacterial growth OD600 (polymyxin B 1 µg/mL): 1.13

Cc1nc(C(=O)NCc2c(C)ncc3c2CCN(C(=O)/C(F)=C/c2ccccc2)C3)cs1
bacterial growth OD600 (polymyxin B 0.75 µg/mL): 0.003

Cc1cc(CNCC2(O)CCCN(Cc3ccccc3F)C2=O)no1 (stereo not given)
bacterial growth OD600 (polymyxin B 1 µg/mL): 0.977

CN(Cc1nccs1)C(=O)C1CCCN(c2nc(-c3ccccc3)nc3c2CCC3)C1 (stereo not given)
bacterial growth OD600 (polymyxin B 1 µg/mL): 0.769

COc1cccc(OCC(O)CNC2CCN(c3ccc(C(=O)NC4CCCC4)cc3)CC2)c1 (stereo not given)
bacterial growth OD600 (polymyxin B 0.75 µg/mL): 0.835

CCCCNC(=O)N1CCC2(CCCN(Cc3cccc(C)c3)C2=O)C1 (stereo not given)
bacterial growth OD600 (polymyxin B 1 µg/mL): 0.982

Cn1cc(CCC(=O)N2CCCC(CCc3ccc(F)c(F)c3)C2)cn1 (stereo not given)
bacterial growth OD600 (polymyxin B 0.75 µg/mL): 0.714

Cc1cc2nc(N3CCCN(Cc4c(C)nn(C)c4Cl)CC3)nc(C)c2cc1C
bacterial growth OD600 (polymyxin B 0.75 µg/mL): 0.787

O=C(CSc1ncccn1)NC1CCCN(c2ccc(C(F)(F)F)cn2)C1 (stereo not given)
bacterial growth OD600 (polymyxin B 0.75 µg/mL): 0.84

CCC1CN(Cc2ccc3ncccc3c2)Cc2cc(OC)ccc2O1 (stereo not given)
bacterial growth OD600 (polymyxin B 0.75 µg/mL): 0.005

CSc1ccccc1N1C(=O)CN(Cc2c(C)n(C)n(-c3ccccc3)c2=O)CC1C (stereo not given)
bacterial growth OD600 (polymyxin B 0.75 µg/mL): 0.931

CCOC(=O)C1(Cc2ccccc2C(F)(F)F)CCN(C(=O)c2cc(C(C)=O)n[nH]2)CC1
bacterial growth OD600 (polymyxin B 1 µg/mL): 0.664

COc1ccc(C(=O)NC2CC2)c(OC2CCN(C3CCSCC3)CC2)c1
bacterial growth OD600 (polymyxin B 0.75 µg/mL): 0.768

CCC(C)CNC1CCN(c2ccc(C(=O)NCc3ccc4c(c3)OCO4)cc2)CC1 (stereo not given)
bacterial growth OD600 (polymyxin B 0.75 µg/mL): 0.728

CCOC(c1ccccc1)c1ccc2c(c1)CN(C(=O)c1noc3c1CCCC3)CCO2 (stereo not given)
bacterial growth OD600 (polymyxin B 0.75 µg/mL): 0.009

OCCC1CN(Cc2ccc(F)cc2F)CCN1CC1CCCCC1 (stereo not given)
bacterial growth OD600 (polymyxin B 1 µg/mL): 0.694

COC(C(=O)Nc1ccnn1C1CCN(CC2CCCCC2)CC1)c1ccccc1 (stereo not given)
bacterial growth OD600 (polymyxin B 0.75 µg/mL): 0.929

OC(Cc1ccccc1)c1ccc2c(c1)CN(Cc1c[nH]c3ccccc13)CCO2 (stereo not given)
bacterial growth OD600 (polymyxin B 0.75 µg/mL): 0.737

CC(=O)Nc1cc(C(=O)N2CCOc3ccccc3C2)c2c(c1)nc(C)n2Cc1ccccc1
bacterial growth OD600 (polymyxin B 0.75 µg/mL): 0.824

Cc1cc(-c2nn(-c3ccccc3F)cc2CN(C)C2CCOC2)c(C)s1 (stereo not given)
bacterial growth OD600 (polymyxin B 1 µg/mL): 0.605
